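CRE-bla HEK293T reporter cells under cAMP stimulation; the beta-lactamase FRET ratio is measured about 3 hours after compound addition.
Each compound was run as a concentration series, mostly reaching a top of 92.4 µM.
Fitted potency from the dose curve; a lower value means a more potent compound.
Calls come from the whole dose curve: active means a well-fitted inhibition curve with enough effect in repeat runs, inconclusive means weak, mixed or opposite-direction curves, and inactive means a flat curve.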

Values are in µM.
Every entry below has the call inconclusive.
These entries are mostly ones the record files as inconclusive; other results of the assay are not listed here.
A potency from a partial, single-point or poor curve is only a rough figure.
Some entries filed as inconclusive have a full curve.
The first word of each remark tells which way the curve ran; it can be opposite to the aim of the assay.

Result for CC1CCc2c(N3CCC(O)CC3)c(F)cc3c(=O)c(C(=O)O)cn1c23 (centres undefined) was fitted potency 21.13 µM (fluorescent, partial curve, poor fit). For CC(C)CC(C)(C)C the result was fitted potency 35.67 µM (activator, partial curve). For [F][Sn]([c]1ccccc1)([c]1ccccc1)[c]1ccccc1 the result was fitted potency 3.064 µM (full curve). Result for CC(NCCC(c1ccccc1)c1ccccc1)c1ccccc1 (centres undefined) was fitted potency 29.85 µM. O=C(OCC(O)CO)c1ccccc1Nc1ccnc2cc(Cl)ccc12 (centres undefined) gave fitted potency 8.413 µM (activator, full curve, poor fit). With C[C@H]1O[C@@H](O[C@H]2[C@@H](O)C[C@H](O[C@H]3[C@@H](O)C[C@H](O[C@H]4CC[C@@]5(C)[C@H](CC[C@@H]6[C@@H]5CC[C@]5(C)[C@@H](C7=CC(=O)OC7)CC[C@]65O)C4)O[C@@H]3C)O[C@@H]2C)C[C@H](O)[C@@H]1O the assay gave fitted potency 0.1188 µM (fluorescent, full curve). O=C1c2ccccc2C(=O)N1CCl gave fitted potency 60.76 µM (activator, partial curve, poor fit).

For Cc1ccc(Cl)c(Nc2ccccc2C(=O)O)c1Cl the result was fitted potency 14.96 µM (fluorescent, partial curve, poor fit). Nc1c(CC(=O)O)cccc1C(=O)c1ccc(Br)cc1 read fitted potency 21.13 µM (fluorescent, partial curve, poor fit). Result for Cn1cnc([N+](=O)[O-])c1Sc1ncnc2nc[nH]c12 was fitted potency 27.71 µM (activator). Result for Cc1cc(OCCOCC[N+](C)(C)Cc2ccccc2)ccc1C(C)(C)CC(C)(C)C was fitted potency 76.49 µM. O=C1C=CC(=O)N1c1ccc(Cc2ccc(N3C(=O)C=CC3=O)cc2)cc1 read fitted potency 54.48 µM (partial curve). C=COCC1CCC(CO)CC1 (centres undefined) gave fitted potency 8.045 µM (inhibitor, partial curve, poor fit). Cc1cc(O)c2ccccc2c1O read fitted potency 29.85 µM (partial curve).

For CCCCCCCCCCCC[N+](C)(C)CCOc1ccccc1 the result was fitted potency 66.01 µM (cytotoxic). OC(c1ccc(Cl)cc1)(c1ccc(Cl)cc1)C(Cl)(Cl)Cl gave fitted potency 54.48 µM (partial curve).

2 of the entries, repeated:

| compound | fitted potency (µM) | curve as filed |
|---|---|---|
| `O=C1C=CC(=O)N1c1ccc(Cc2ccc(N3C(=O)C=CC3=O)cc2)cc1` | 54.48 | partial curve |
| `[F][Sn]([c]1ccccc1)([c]1ccccc1)[c]1ccccc1` | 3.064 | full curve |

The results are deposited in PubChem (AID1963591; Tox21, 2024).